For this assay, the target named is γ-tubulin (human (endogenous in MRC5)) (UniProt P23258). The assay is described as follows: proximity ligation; Duolink PLA Fluorescent Detection (red), anti-mouse PLUS and anti-rabbit MINUS probes, on fixed MRC5, FADS 1 and FADS 2 fibroblasts; rabbit anti-rapsyn, rabbit or mouse anti-γ-tubulin, mouse anti-NUP88; foci mean a distance of at most 40 nm; foci per cell counted.

Sequences of proteins named here, by UniProt entry; tags and fusion partners are left off. A change or cut given only in a name is not applied to a line headed by its entry.
UniProt P23258: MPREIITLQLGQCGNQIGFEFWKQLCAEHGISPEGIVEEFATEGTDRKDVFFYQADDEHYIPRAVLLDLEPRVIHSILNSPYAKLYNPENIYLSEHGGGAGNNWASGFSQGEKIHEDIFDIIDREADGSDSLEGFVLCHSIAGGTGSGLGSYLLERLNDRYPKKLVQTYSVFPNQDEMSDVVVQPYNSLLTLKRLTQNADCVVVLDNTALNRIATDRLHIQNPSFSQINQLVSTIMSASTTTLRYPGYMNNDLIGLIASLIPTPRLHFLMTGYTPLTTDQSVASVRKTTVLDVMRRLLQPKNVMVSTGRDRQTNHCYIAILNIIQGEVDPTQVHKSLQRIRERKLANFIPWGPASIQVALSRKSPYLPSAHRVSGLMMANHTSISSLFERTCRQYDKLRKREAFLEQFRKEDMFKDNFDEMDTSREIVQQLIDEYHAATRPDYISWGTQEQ

These are yes or no findings as the source states them, for the method shown. Binding seen in cells or lysates may run through a third protein. Binding calls can cover weak binding; strength is not graded here.

B1: rapsyn (receptor-associated protein of the synapse) (protein, UniProt Q13702-1 1-412)
chain: MGQDQTKQQIEKGLQLYQSNQTEKALQVWTKVLEKSSDLMGRFRVLGCLVTAHSEMGRYKEMLKFAVVQIDTARELEDADFLLESYLNLARSNEKLCEFHKTISYCKTCLGLPGTRAGAQLGGQVSLSMGNAFLGLSVFQKALESFEKALRYAHNNDDAMLECRVCCSLGSFYAQVKDYEKALFFPCKAAELVNNYGKGWSLKYRAMSQYHMAVAYRLLGRLGSAMECCEESMKIALQHGDRPLQALCLLCFADIHRSRGDLETAFPRYDSAMSIMTEIGNRLGQVQALLGVAKCWVARKALDKALDAIERAQDLAEEVGNKLSQLKLHCLSESIYRSKGLQRELRAHVVRFHECVEETELYCGLCGESIGEKNSRLQALPCSHIFHLRCLQNNGTRSCPNCRRSSMKPGFV
Regarding B1, the binding entry is “binds”.

B2: rapsyn E162K mutant protein (protein, UniProt Q13702-1 1-412)
chain: MGQDQTKQQIEKGLQLYQSNQTEKALQVWTKVLEKSSDLMGRFRVLGCLVTAHSEMGRYKEMLKFAVVQIDTARELEDADFLLESYLNLARSNEKLCEFHKTISYCKTCLGLPGTRAGAQLGGQVSLSMGNAFLGLSVFQKALESFEKALRYAHNNDDAMLKCRVCCSLGSFYAQVKDYEKALFFPCKAAELVNNYGKGWSLKYRAMSQYHMAVAYRLLGRLGSAMECCEESMKIALQHGDRPLQALCLLCFADIHRSRGDLETAFPRYDSAMSIMTEIGNRLGQVQALLGVAKCWVARKALDKALDAIERAQDLAEEVGNKLSQLKLHCLSESIYRSKGLQRELRAHVVRFHECVEETELYCGLCGESIGEKNSRLQALPCSHIFHLRCLQNNGTRSCPNCRRSSMKPGFV
On to B2, for which the binding entry is “binds”.
